Measurements from patent US6504005B1 (Yeda Research and Development Co. Ltd., priority 1996, dated 2003).

Experiment: peptide synthesis
Conditions: late stage modification step
[1] = Based on pure material obtained following HPLC

Substance	step yield [1]	step yield
Gly^A1, Phe^B1, Lys^B29-N-(Fmoc)3-insulin	30%	
Phe^B1, Lys^B29-N-(Fmoc)2-insulin	14%	˜50%
